Assay results as given in patent publication US20130245110A1, “USE FOR CANNABINOIDS” (priority 2008, published 2013).
Where “and” joins values, the source holds several entries; their conditions need not be identical. Equal entries are not always repeated.

Tests used:
C57B1/6 ob/ob mouse [1] = assay: Fed plasma HDL-cholesterol; type: in vivo; details: ob/ob mice, 10 mg·kg−1 daily oral gavage
Procedure: (§1) The following are a battery of tests used to elicit the effects of drugs on diseases including type I or II diabetes, obesity, dyslipidaemia, related metabolic disorders and cardiovascular disease. • a) Body weight: Bodyweights of all mice were measured twice weekly during the study. • b) Food intake: Food intake was measured by weight difference taking account of food wastage in the bottom of the cage. • c) Measurement of water consumption: Water intake was calculated daily for each animal, during the treatment period, by weight difference of the water bottle. • d) Oral Glucose Tolerance Test (OGTT): Glucose was dissolved in water (3 g/10 ml) and given to the mice orally at a rate of 3 g/kg. […] Samples were then analysed automatically using a SpectraMax-250 and SoftMax Pro software. • f) Plasma preparation: Blood was collected for the measurement of i) plasma insulin, ii) cholesterol, iii) free fatty acids or iv) triglyceride concentration. • i. Plasma insulin analysis: Plasma insulin was measured using 5 μl of plasma, compared with a mouse insulin standard using a 96-well micro-assay plate • ii. […] The samples were mixed and incubated for 5 minutes before reading at dual wavelengths of 500 and 660 nm. • iii. Plasma free fatty acids: 5 μl samples of plasma were measured into a 96-well assay plate, to which was added 0.2 ml of reagents NEFA C • iv. […]

[2] = test system: dietary induced obese (DIO) mouse model; details: DIO mice; analysis of variance
Procedure: as §1

[3] = test system: dietary induced obese (DIO) mouse model; assay: Thermic response to food (energy expenditure after Complan meal), chronic dosing study; type: in vivo; design: unit not given here
Excerpt: Once the acute studies were complete the mice were grouped in two groups of five mice for the chronic dosing study. Dosing was daily by oral gavage at 09:00-10:00.
Energy expenditure consists of basal metabolic rate, exercise-induced energy expenditure, and non-exercise thermogenesis. The latter is the most likely area to be affected by anti-obesity agents. Non-exercise thermogenesis includes the thermic response to food, which in rodents can be measured by examining energy expenditure in response to a meal. This was measured after an oral dose of complan (see methods).

C57B1/6 ob/ob mouse [4] = assay: Thermic effect of a Complan meal: 3-hour energy expenditure; type: in vivo; details: ob/ob mice, day 17, 10 mg/kg daily oral gavage

Cc1c(C(=O)NN2CCCCC2)nn(-c2ccc(Cl)cc2Cl)c1-c1ccc(I)cc1 [AM 251]
Fed HDL cholesterol day 28 (C57B1/6 ob/ob mouse [1]; individual values): 2.03 and 2.26 and 2.04 and 2.19 and 1.97 and 2.24 and 2.00
percentage HDL cholesterol day 28 (C57B1/6 ob/ob mouse [1]; HDL as percentage of total cholesterol): 34.8% and 28.8% and 30.6% and 35.6% and 32.8% and 34.9%
Fall in leptin levels [2]: significant effect
Thermic response to food ([3]; DIO mice, days 15-17, 10 mg·kg−1 p.o., Hour 0.44): 1.11 and 1.31 and 1.97
Thermic response to food ([3]; DIO mice, days 15-17, 10 mg·kg−1 p.o., Hour 0.67): 1.81 and 1.97 and 2.49
Thermic response to food ([3]; DIO mice, days 15-17, 10 mg·kg−1 p.o., Hour 0.89): 2.19 and 2.38 and 2.78
Thermic response to food ([3]; DIO mice, days 15-17, 10 mg·kg−1 p.o., Hour 1.11): 2.52 and 2.78 and 3.40
Thermic response to food ([3]; DIO mice, days 15-17, 10 mg·kg−1 p.o., Hour 1.33): 2.86 and 2.85 and 3.64
Thermic response to food ([3]; DIO mice, days 15-17, 10 mg·kg−1 p.o., Hour 1.56): 3.05 and 3.14 and 3.53
Thermic response to food ([3]; DIO mice, days 15-17, 10 mg·kg−1 p.o., Hour 2.22): 3.30 and 4.10 and 3.46
Thermic response to food ([3]; DIO mice, days 15-17, 10 mg·kg−1 p.o., Hour 2.44): 3.38 and 4.00 and 3.68
Thermic response to food ([3]; DIO mice, days 15-17, 10 mg·kg−1 p.o., Hour 2.67): 3.42 and 4.24 and 3.78
Thermic response to food ([3]; DIO mice, days 15-17, 10 mg·kg−1 p.o., Hour 2.89): 3.56 and 4.26 and 3.99
Thermic response to food ([3]; DIO mice, days 15-17, 10 mg·kg−1 p.o., Hour 3.11): 3.69 and 4.26 and 3.78
Thermic response to food ([3]; DIO mice, days 15-17, 10 mg·kg−1 p.o., Hour 3.33): 3.63 and 4.23 and 3.80
Thermic response to food ([3]; DIO mice, days 15-17, 10 mg·kg−1 p.o., Hour 3.56): 3.79 and 4.24 and 3.62
Thermic response to food ([3]; DIO mice, days 15-17, 10 mg·kg−1 p.o., Hour 3.78): 3.79 and 4.21 and 3.54
Thermic response to food ([3]; DIO mice, days 15-17, 10 mg·kg−1 p.o., Hour 4.00): 4.05 and 4.24 and 3.79
Thermic response to food ([3]; mouse, in vivo, po): 3.30 and 3.25 and 3.50 and 3.44
Thermic effect of a meal: 3-hour energy expenditure per animal (C57B1/6 ob/ob mouse [4]): significant effect and 9.00 and 9.38
